Experimental data published in doi:10.1101/2020.05.13.093252.
These are yes or no findings as the source states them, for the method shown. In cells and extracts the contact can be indirect. Some entries that bind do so weakly or less than the wild type.

Amino acid sequences for entries named in this document (tags omitted). Residues count along the entry.
UniProt P21803, residues 22-821: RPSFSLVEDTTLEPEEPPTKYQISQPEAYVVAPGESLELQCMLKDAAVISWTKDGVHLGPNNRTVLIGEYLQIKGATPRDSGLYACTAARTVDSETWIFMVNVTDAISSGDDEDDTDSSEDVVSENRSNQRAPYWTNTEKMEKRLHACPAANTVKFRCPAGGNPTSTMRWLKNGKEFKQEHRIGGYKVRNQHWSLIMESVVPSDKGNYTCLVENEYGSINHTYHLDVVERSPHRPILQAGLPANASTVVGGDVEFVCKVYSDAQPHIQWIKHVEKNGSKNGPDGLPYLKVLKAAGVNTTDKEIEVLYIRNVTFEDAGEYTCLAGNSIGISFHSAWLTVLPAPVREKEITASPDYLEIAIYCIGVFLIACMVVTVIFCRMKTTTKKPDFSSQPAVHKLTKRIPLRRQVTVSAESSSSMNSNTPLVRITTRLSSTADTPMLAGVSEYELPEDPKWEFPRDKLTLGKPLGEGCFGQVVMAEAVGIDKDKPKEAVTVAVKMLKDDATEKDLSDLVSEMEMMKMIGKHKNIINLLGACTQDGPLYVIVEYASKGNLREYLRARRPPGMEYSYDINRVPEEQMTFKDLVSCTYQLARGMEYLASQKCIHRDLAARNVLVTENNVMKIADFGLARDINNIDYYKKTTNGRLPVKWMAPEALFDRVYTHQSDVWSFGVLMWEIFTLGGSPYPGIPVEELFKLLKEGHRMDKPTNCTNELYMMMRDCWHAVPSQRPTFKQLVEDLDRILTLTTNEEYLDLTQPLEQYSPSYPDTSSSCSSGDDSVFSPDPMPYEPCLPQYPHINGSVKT
UniProt P47941: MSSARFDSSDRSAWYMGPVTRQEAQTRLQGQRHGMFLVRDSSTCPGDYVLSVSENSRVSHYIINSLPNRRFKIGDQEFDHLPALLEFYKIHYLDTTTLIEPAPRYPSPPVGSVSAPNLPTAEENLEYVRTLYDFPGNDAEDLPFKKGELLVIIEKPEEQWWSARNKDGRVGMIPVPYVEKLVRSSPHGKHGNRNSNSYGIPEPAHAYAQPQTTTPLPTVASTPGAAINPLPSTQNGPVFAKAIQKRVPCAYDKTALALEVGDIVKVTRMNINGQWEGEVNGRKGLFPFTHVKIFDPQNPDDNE

Target: FGFR2^WT-Flag3x (mouse FGFR2 isoform c, wild type, triple Flag tag) (mouse) (UniProt P21803)
Assay: co-IP

CRKL (from UniProt P47941 1-303)
binding: binds
